Measurements as given in patent US8173771B2, “Humanin receptor or humanin-like polypeptide receptor” (Keio Univeristy, priority 2005, dated 2012).
At least one peptide structure holds a part that was inferred or is arguable (an end, a ring closure or a residue).

How the values were obtained:
[1] = test system: human WSX-1, human CNTF receptor and human gp130 overexpressed in F11 cells; assay: Immunofluorescence-based HN binding assay (1) after ectopic overexpression of receptor genes in F11 cells
Experimental: A) F11 cells were transfected with 0.5 μg of the pEF/BOS vector, pEF-mycHis CREME9, pEF-mycHishuman WSX-1, or pEF-V5-human CNTF-R in association with 0.5 μg of pCAG-human gp130, or transfected with 0.5 μg of pEF-mycHis human WSX-1 and pEF-V5-human CNTF-R and pCAG-human gp130. To keep the total amounts of transfected vectors to be 1.5 μg, an appropriate amount of the pEFBOS vector was added. The graphs show the results of a binding amount of the biotin-labeled HN to each transfected cell by the detection of immunofluorescence reaction. The protein expression by immunoblot analysis is shown below in photos.
B) F11 cells were transfected with 0.5 μg of pEF-myc His human CREME9 or pEF-mycHis human WSX-1 in association with 0.5 μg of pCAG-human gp130. For competition, 10 μM of non-labeled (cold) HNG or HNA was added for some experiments. Fluorescence signals were detected with a laser-scanning, confocal microscope LSM (Carl Zeiss, Germany) (right panels).
F11 cells (7×10^4/well in 6-well plates) were replated into 96-well plates (7×10^3 cells/well) at 24 hrs after transfection with indicated amounts of the plasmids encoding mycHis-WSX or V5-CNTF-R, and with PCAG-human gp130 if required. At 36 hrs after transfection, the cells were added with 100 nM of biotin-labeled HNG-FLAG in the presence or the absence of 10 μM of HNG (S14 G-HN) or HNA (C8A-HN) (Hashimoto et al., 2001a). After 6 hrs incubation, they were fixed with 4% paraformaldehyde in PBS for 30 min. After washing with PBS, cells were stained with FITC-conjugated avidin (Molecularprobe, Eugene, Oreg., USA). Immunofluorescence intensity was measured (excitation=485 nm, emission=535 nm) with a spectrofluorometer (Wallac1420 ARVOsx Multi Label Counter). Immunohistochemical analysis was done with a laser-scanning, confocal microscope LSM (Carl Zeiss, Germany).

CNTF-R, WSX-1 and gp130 = target: T1, CNTF-R, WSX-1 and gp130 (Mus musculus, UniProt O70394+O88507); assay: Co-immunoprecipitation of endogenous receptor subunits in F11 cells after HN treatment; type: cell-based; conditions: endogenous expression level, 0-6 hrs
T1 construct: endogenous in cells; host or cells: F11 neurohybrid cells
T1 sequence (O70394 25-623): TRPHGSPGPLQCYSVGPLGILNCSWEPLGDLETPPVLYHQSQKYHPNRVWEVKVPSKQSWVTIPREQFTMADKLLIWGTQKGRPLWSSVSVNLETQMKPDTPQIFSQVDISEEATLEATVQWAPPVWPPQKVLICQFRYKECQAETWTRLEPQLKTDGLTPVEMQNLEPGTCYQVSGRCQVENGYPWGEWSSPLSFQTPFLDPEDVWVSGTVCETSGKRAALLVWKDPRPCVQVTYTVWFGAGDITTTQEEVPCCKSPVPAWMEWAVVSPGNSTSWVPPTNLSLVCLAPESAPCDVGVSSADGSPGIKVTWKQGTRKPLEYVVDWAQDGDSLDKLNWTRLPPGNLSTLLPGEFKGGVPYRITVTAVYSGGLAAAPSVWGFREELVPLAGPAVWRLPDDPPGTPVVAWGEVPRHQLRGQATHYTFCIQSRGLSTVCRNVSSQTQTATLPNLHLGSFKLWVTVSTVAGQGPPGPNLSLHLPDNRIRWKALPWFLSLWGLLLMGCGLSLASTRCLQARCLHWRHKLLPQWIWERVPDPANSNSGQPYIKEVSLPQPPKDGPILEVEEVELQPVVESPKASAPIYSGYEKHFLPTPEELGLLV
T1 sequence (O88507 23-342 limits assumed): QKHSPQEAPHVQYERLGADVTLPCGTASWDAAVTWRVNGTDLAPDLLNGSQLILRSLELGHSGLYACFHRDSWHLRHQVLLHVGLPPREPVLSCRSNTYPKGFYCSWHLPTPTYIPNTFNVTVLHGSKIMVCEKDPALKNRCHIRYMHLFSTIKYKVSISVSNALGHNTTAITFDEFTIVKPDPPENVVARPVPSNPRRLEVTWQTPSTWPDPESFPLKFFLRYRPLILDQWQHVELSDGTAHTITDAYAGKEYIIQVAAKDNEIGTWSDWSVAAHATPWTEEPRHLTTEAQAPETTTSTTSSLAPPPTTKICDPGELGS
T1 sequence (Q00560 23-917 partner): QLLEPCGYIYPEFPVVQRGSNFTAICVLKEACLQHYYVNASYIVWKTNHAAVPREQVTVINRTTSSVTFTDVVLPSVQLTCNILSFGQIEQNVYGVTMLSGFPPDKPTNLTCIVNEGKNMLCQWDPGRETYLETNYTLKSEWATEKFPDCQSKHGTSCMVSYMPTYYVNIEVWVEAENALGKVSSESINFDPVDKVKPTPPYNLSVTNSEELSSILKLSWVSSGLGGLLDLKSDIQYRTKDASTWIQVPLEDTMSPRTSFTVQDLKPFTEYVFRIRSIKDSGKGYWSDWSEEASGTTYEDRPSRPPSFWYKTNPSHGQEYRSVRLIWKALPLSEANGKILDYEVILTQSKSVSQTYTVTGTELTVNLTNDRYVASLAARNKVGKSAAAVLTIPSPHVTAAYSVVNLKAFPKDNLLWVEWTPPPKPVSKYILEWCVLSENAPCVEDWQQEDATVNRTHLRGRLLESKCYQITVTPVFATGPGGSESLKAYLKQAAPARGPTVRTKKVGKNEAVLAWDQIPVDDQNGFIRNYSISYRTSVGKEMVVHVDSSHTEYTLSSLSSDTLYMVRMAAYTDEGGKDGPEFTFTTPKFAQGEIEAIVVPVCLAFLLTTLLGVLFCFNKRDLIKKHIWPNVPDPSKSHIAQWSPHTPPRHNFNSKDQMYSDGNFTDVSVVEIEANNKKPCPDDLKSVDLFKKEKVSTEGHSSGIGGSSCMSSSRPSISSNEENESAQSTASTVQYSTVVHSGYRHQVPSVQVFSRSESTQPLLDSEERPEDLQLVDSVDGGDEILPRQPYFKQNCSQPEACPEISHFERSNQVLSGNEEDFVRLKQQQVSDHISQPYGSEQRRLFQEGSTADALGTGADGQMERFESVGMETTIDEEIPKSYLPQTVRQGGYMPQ

CC[C@H](C)[C@H](NC(=O)[C@H](CCC(=O)O)NC(=O)[C@H](CO)NC(=O)[C@@H](NC(=O)[C@H](CC(C)C)NC(=O)[C@H](CC(C)C)NC(=O)[C@H](CC(C)C)NC(=O)[C@H](CC(C)C)NC(=O)[C@H](CS)NC(=O)[C@H](CO)NC(=O)[C@H](Cc1ccccc1)NC(=O)CNC(=O)[C@H](CCCNC(=N)N)NC(=O)[C@@H]1CCCN1C(=O)[C@H](C)NC(=O)[C@@H](N)CCSC)[C@@H](C)O)C(=O)N[C@@H](CC(=O)O)C(=O)N[C@@H](CC(C)C)C(=O)N1CCC[C@H]1C(=O)N[C@H](C(=O)N[C@@H](CCCCN)C(=O)N[C@@H](CCCNC(=N)N)C(=O)N[C@@H](CCCNC(=N)N)C(=O)N[C@@H](C)C(=O)O)C(C)C [HN, Humanin]
binding of HN to F11 cells ([1]; expression of CREME9, with human gp130): did not | binding of HN to F11 cells ([1]; expression of human WSX-1 or the human CNTF receptor, with human gp130): increased | association between CNTF-R and WSX-1, or between WSX-1 and gp130 (CNTF-R, WSX-1 and gp130): induced
